These are literature values, as cited in US20240165126A1, “TIANEPTINE OXALATE AND NALOXONE COMBINATION FOR THE TREATMENT OF MAJOR DEPRESSIVE DISORDER” (TONIX PHARMACEUTICALS HOLDING CORP., priority 2021, published 2024).

The conditions of this series: Wagstaff et al. 2001.

Turning to `CN1c2ccccc2C(NCCCCCCC(=O)O)c2ccc(Cl)cc2S1(=O)=O` (stereo not shown) [Tianeptine, 7-[(3-chloro-6-methyl-5,5-dioxo-11H-benzo[c][2,1]benzothiazepin-11-yl)amino]heptanoic acid], the bioavailability result is “about 99%”.
